# According to article PMC7819943, “Rice protein-binding microarrays: a tool to detect cis-acting elements near promoter regions in rice”:
# The list shows a part of the results.
# Target: T1, OsSMF1 (Oryza sativa, UniProt Q6ZLB0 1-436)
# T1 sequence: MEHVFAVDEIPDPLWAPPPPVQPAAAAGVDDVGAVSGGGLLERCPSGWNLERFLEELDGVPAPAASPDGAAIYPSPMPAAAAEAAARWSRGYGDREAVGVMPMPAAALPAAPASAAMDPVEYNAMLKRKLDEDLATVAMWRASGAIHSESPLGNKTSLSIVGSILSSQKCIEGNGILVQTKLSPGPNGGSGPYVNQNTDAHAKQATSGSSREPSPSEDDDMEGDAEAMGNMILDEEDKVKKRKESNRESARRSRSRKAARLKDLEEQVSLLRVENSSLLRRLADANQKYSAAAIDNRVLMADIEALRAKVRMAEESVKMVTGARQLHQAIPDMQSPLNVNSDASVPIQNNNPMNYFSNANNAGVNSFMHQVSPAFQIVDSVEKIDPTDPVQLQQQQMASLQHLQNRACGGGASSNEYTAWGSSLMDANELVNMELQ
# Assay: protein-binding microarray (RPBM); PBS, 2% BSA, 51.3 ng/ul salmon testes DNA, 50 uM zinc acetate, 200 nM TF, 25 C, 1 h; high values mean tight binding
# Conditions: protein: recombinant; tags: N-terminal polyhistidine and DsRed monomer fusion (pET32a); chain copies: 2; label: CyDye5-dUTP incorporated in the synthesized complementary strand; 3' TTTTT single-stranded linker to array surface; dsDNA, one strand shown
# Outline: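 Binding signal is reported as fluorescence intensity per feature (arbitrary units) from an Axon 4000B scanner. Incubation used 200 nM of each Ni–NTA-purified, N-terminally polyhistidine- and DsRed-fused transcription factor from E. coli BL21-CodonPlus on a double-stranded custom Agilent array for 1 h at 25 °C, with 50 µM zinc acetate in the buffer, followed by washing.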
row,Sequence,binding signal
1,CGAACCGATGGTTGTGATTGTACGTGTCTACCTGATACGTCGGAGTCACCTAGTGCAG,5940 fluorescence intensity (a.u.)
2,GGTTGGAGGAAGAGGAGGAGCGGAGGAGATCCCCAACCACCGGAGTCACCTAGTGCAG,3200 fluorescence intensity (a.u.)
3,GATCAATAGATAAATGCGTCCTCCGTATCTTCAGCAAATCCGGAGTCACCTAGTGCAG,3660 fluorescence intensity (a.u.)
4,AACCCGCGGGCCGCCGCCGCCGCCACCGCCGCCGCCGATTCGGAGTCACCTAGTGCAG,3340 fluorescence intensity (a.u.)
5,TGAGGATCTACATGGACACTGCCGTCGTCGTGGTGCTGTCCGGAGTCACCTAGTGCAG,3740 fluorescence intensity (a.u.)
6,AATCAAGAGCGGTTTTATCCTATGTGGCGTACGCGTGGCACGGAGTCACCTAGTGCAG,14900 fluorescence intensity (a.u.)
7,GATCGGCCGACGTGGCCTCGCCGGAGACGGTTGATGCGAGCGGAGTCACCTAGTGCAG,6360 fluorescence intensity (a.u.)
8,CCACCGCCTCGTTGCTGCCGTCACCAACCCACCACCAGAACGGAGTCACCTAGTGCAG,3570 fluorescence intensity (a.u.)
9,CGTAGGCTCGTCGCGGCCACGTACGCCATCCCGAGCTCGGCGGAGTCACCTAGTGCAG,6280 fluorescence intensity (a.u.)
10,ATTGTTTTGGAGTGACAAAGTTGCTTAATTTTGGTGAATGCGGAGTCACCTAGTGCAG,3820 fluorescence intensity (a.u.)
11,TGTGCTCCCTTCGTGGCGGCGACGCCGACGAGGCGTACGCCGGAGTCACCTAGTGCAG,3970 fluorescence intensity (a.u.)
12,GAATTTTCACGTTAGTGCCACATGTATGTCACGTAGGATCCGGAGTCACCTAGTGCAG,4570 fluorescence intensity (a.u.)
13,ATAGGTTTCCTCTCCACCTCCAGCCCGGACTCTCCCGATCCGGAGTCACCTAGTGCAG,3150 fluorescence intensity (a.u.)
14,GCGGGTCCCCTAAGTGCCACATAGGATGAAACCGCTATCACGGAGTCACCTAGTGCAG,4340 fluorescence intensity (a.u.)
15,TTGAAATGTTTAAGTTGTTTTAAAATTATTCTATATATTTCGGAGTCACCTAGTGCAG,37800 fluorescence intensity (a.u.)
16,TATACGTTAATACATATATTGTTTTACGTGTCGAAGAGGACGGAGTCACCTAGTGCAG,4040 fluorescence intensity (a.u.)
17,AATGTTTGGGTTCGAATTTAGTGGGTGGGTTTGGAGTTTGCGGAGTCACCTAGTGCAG,4670 fluorescence intensity (a.u.)
18,CAGAAGTTTCAAGAAAAGAATGACTAGGTGAAGCCATCACCGGAGTCACCTAGTGCAG,3220 fluorescence intensity (a.u.)
19,CCACCGGCCACCTCGTCACCACCTCCCCGCGCCAGCAGCCCGGAGTCACCTAGTGCAG,6030 fluorescence intensity (a.u.)
20,AATCCAGTCCAGGACACGACACCCTCCCTACTCTCTCCACCGGAGTCACCTAGTGCAG,3240 fluorescence intensity (a.u.)
21,GCCAAAAGGCAAACGACAGCGTTGTTTGTTGCCGCGAGAACGGAGTCACCTAGTGCAG,3600 fluorescence intensity (a.u.)

# A different layout for part of the listing above.
row	Sequence	binding signal
4	AACCCGCGGGCCGCCGCCGCCGCCACCGCCGCCGCCGATTCGGAGTCACCTAGTGCAG	3340 fluorescence intensity (a.u.)
7	GATCGGCCGACGTGGCCTCGCCGGAGACGGTTGATGCGAGCGGAGTCACCTAGTGCAG	6360 fluorescence intensity (a.u.)
12	GAATTTTCACGTTAGTGCCACATGTATGTCACGTAGGATCCGGAGTCACCTAGTGCAG	4570 fluorescence intensity (a.u.)

# (next part)

row,Sequence,binding signal
1,GCCTGGTACCTGGTATCTGGGTATCATGGTTAGGTGTCAGCGGAGTCACCTAGTGCAG,4700 fluorescence intensity (a.u.)
2,CCGCCACCGCGTCGCCCGTCGCCGGCCGTAGACGCCCTCCCGGAGTCACCTAGTGCAG,3250 fluorescence intensity (a.u.)
3,ACCTGTTTCGTTCGTCCACGCCAGCGCCAACCGGACATGACGGAGTCACCTAGTGCAG,5610 fluorescence intensity (a.u.)
4,GGAAGGCTGATCTGAAACTGGCGTGGCACCAGCCGTGTTTCGGAGTCACCTAGTGCAG,7960 fluorescence intensity (a.u.)
5,ACTACTTATTGTTCTTCAAACTACATGTCAGTAACTACGTCGGAGTCACCTAGTGCAG,24400 fluorescence intensity (a.u.)
6,CTGTGCGGGGCGGTGCTCCAGGACAGGCGGCGGCGTCAGGCGGAGTCACCTAGTGCAG,3260 fluorescence intensity (a.u.)
7,GCTGGCACCGTCGCAGGCACGTGGACTGAACACCGGGCCCCGGAGTCACCTAGTGCAG,4660 fluorescence intensity (a.u.)
8,ACGAATTGGGAGGGGTAAAATGGCATAATGGTAATTAATACGGAGTCACCTAGTGCAG,3200 fluorescence intensity (a.u.)
9,GCCCCATCATCGGCCATCCGAGTCAACCGAGTGAGCCACCCGGAGTCACCTAGTGCAG,4920 fluorescence intensity (a.u.)
10,TAATTTGGACCAGGCAGTGACGTTTGCAGTAATCGCAATCCGGAGTCACCTAGTGCAG,6220 fluorescence intensity (a.u.)
11,GAGGGATCGTGTCCGCATCAACCGGGCCAACGTGCCTATGCGGAGTCACCTAGTGCAG,3430 fluorescence intensity (a.u.)
12,CCCGAATAGGTTGAGGGTAACCAAGACATTGAGACTTGAGCGGAGTCACCTAGTGCAG,3290 fluorescence intensity (a.u.)
13,GAGGGCAGCCTCCGGATGCCGTCGTCACCGACATGAGGTACGGAGTCACCTAGTGCAG,3230 fluorescence intensity (a.u.)
14,GAGGCATACTGGCGAGTGGCGACTACAGAGATGGTGGCAACGGAGTCACCTAGTGCAG,22000 fluorescence intensity (a.u.)
15,TACGAAATAGAAATGCTGACAGAACGCGTGTAGCGTTTGACGGAGTCACCTAGTGCAG,4810 fluorescence intensity (a.u.)
16,CAATACAACTAACCAAACAGCTACATATGTATTCTTCTGGCGGAGTCACCTAGTGCAG,4100 fluorescence intensity (a.u.)
17,CTGATTTATGATAGGACATGACACACTACCTCTACATGTTCGGAGTCACCTAGTGCAG,4490 fluorescence intensity (a.u.)
18,CTCGAAACGGGCTAAGTTAATGGGCTTTCGGCCCATGTGGCGGAGTCACCTAGTGCAG,3330 fluorescence intensity (a.u.)
19,GCATAGGAATTACGGTGTGACAAATGTTTACCACTGTTACCGGAGTCACCTAGTGCAG,3150 fluorescence intensity (a.u.)
20,CGCTTTCCTTCCTCCTCTCCACCTCAGCCGCCGGCCACGACGGAGTCACCTAGTGCAG,5190 fluorescence intensity (a.u.)
21,GTTAAGGAACAAGGACATATGCCACATCATTTTGGCCGAACGGAGTCACCTAGTGCAG,7640 fluorescence intensity (a.u.)
